Experimental data published in patent US8809268B2, “Combination therapy to combat helminth resistance” (The Regents of The University of California, priority 2008, dated 2014).
Some entries share one result that the patent states for a list of compounds.

Tested on: wild-type C. elegans
Type: in vivo, Caenorhabditis elegans
Conditions: in combination with Cry5B 1:1

## C/C(=N\c1ccc(/N=C/c2ccc(/C=N/c3ccc(/N=C(\C)N(C)C)cc3)cc2)cc1)N(C)C [Tribendimidine]
  CI values (ED50 to ED95): ≤ 0.41
